Some results were stated once for a whole list of compounds, not compound by compound. Non-standard residues stand in square brackets, D forms with d. Residues, ends and D or L forms follow the SMILES beside them. dPhe(F5) = N[C@H](Cc1c(F)c(F)c(F)c(F)c1F)C(=O)O; dNMeA = CN[C@H](C)C(=O)O
Tested on: rat pancreatic acini cells
Experiment: Inhibition of bombesin-produced amylase release from rat pancreatic acini cells
Format: cell-based
Settings: read-out: half-maximal effective dose, inhibition of amylase release produced by bombesin

Compound	IC50 [nM]
COC(=O)[C@H](CC(C)C)NC(=O)[C@H](Cc1c[nH]cn1)NC(=O)[C@@H](C)NC(=O)[C@@H](NC(=O)[C@H](C)NC(=O)[C@H](Cc1c[nH]c2ccccc12)NC(=O)[C@H](CCC(N)=O)NC(=O)[C@H](N)Cc1c(F)c(F)c(F)c(F)c1F)C(C)C [D-F5-Phe-Gln-Trp-Ala-Val-D-Ala-His-Leu-methylester] (H-[dPhe(F5)]QWAV[dA]HL-OMe)	5 to 10
COC(=O)[C@H](CC(C)C)NC(=O)[C@H](Cc1c[nH]cn1)NC(=O)[C@@H](C)N(C)C(=O)[C@@H](NC(=O)[C@H](C)NC(=O)[C@H](Cc1c[nH]c2ccccc12)NC(=O)[C@H](CCC(N)=O)NC(=O)[C@H](N)Cc1ccccc1)C(C)C [D-Phe-Gln-Trp-Ala-Val-N-methyl-D-Ala-His-Leu-methylester] (H-[dF]QWAV[dNMeA]HL-OMe)	5 to 10

From patent publication US20050026827A1, “Octapeptide bombesin analogs” (Societe de Conseils de Recherches et d'Applications …, priority 1987, published 2005)
